Data on three molecules can be found in patent publication US11767289B2, “Methods and compositions for pest control” (VMI Foundation, priority 2010, dated 2023).

In data set [1] the test system is Monomorium ebeninum males. Kind of data set: GC-MS analysis of male ant extracts for tyramides. Conditions: M. ebeninum males trisected into heads, thoraxes, gasters.
Data set [2] deals with Megalomyrmex staudingeri males. Put plainly: GC-MS of methanol extracts of winged males (male tyramides). To be noted: collection RMMA040613-05.
For data set [3], the system named is Megalomyrmex wallecei males. Described as above. To be noted: collection RMMA050710-01.

Consider `CCCC(=O)NCCc1ccc(O)cc1` [Compound 3, N-[2-(4-hydroxyphenyl)ethyl]butanamide], for which the “body part in which the compounds occur (trisection)” value in data set [1] is “found only in the gasters of the ants”. For the same molecule, the “Tyramides, relative ratios of the compounds” value was determined as 1.5 in data set [2] and 1 in data set [3].
Regarding `CCCCCC(=O)NCCc1ccc(O)cc1` [Compound 6, N-[2-(4-hydroxyphenyl)ethyl]hexanamide], the “Tyramides, relative ratios of the compounds” value in data set [2] and in data set [3] was 1 each time.
Take `CC(C)CC(=O)C(=O)NCCc1ccc(O)cc1` [Compound 7c, N-[2-(4-Hydroxyphenyl)ethyl]-4-methyl-2-oxopentanamide]: the “body part in which the compounds occur (trisection)” value in data set [1] is recorded as “found only in the gasters of the ants”.
